For at least one compound, name, drawing or mass did not settle the structure. Some compounds share one wording; it may come from a single statement.
Key:
Format in all cases: cell-based, human
[1] = tested on: ML-2; assay: Cytokine induction, electrochemiluminescence assay of culture supernatant; conditions: for Secreted IL-1β in cell culture supernatant: 24, 48 and 72 hours, doses conferring similar caspase3/7 activation and viability loss; for Effect of second agent on Compound 1 induced IL-1β: ML-2 (FIG. 12)
Description: (§1) For cytokine assays on AML cell lines, cells were seeded at 1 million per mL, 3 mL per well of 6-well plates and allowed set overnight. The next day, cells were treated with 3 μL 1000× working stock of compounds of interest.
(§2) Human AML cell lines, HL-60 (CCL-240), KG-1 (CCL-246), ML-2 (ACC-15), MOLM-13 (ACC-554), MV-4-11 (CRL-9591), NOMO-1 (ACC-542), TF-1 (CRL-2003), THP-1 (TIB-202), and U937 (CRL-1593) were obtained from American Type Culture Collection (ATCC; Manassas, VA) or Deutsche Sammlung von Mikroorganismen and Zellkulturen (DSMZ, Germany) cell banks. Acute myeloid leukemia cell lines were maintained in RPMI-1640 (ATCC Cat No. 30-2001) containing 20% fetal bovine serum (FBS) (Corning Cat No. 35-010-CV) and maintained in humidified incubators at 5% carbon dioxide.
(§3) IL-1α (Meso Scale Disgnostics, Cat No. K151RBD), IL-1β (Meso Scale Disgnostics, Cat No. K151QPD), IL-1RA (Meso Scale Disgnostics, Cat No. K151WTD), IL-18 (Meso Scale Disgnostics, Cat No. K151VJK), TNFa (Meso Scale Disgnostics, Cat No. K151QWD), VEGF Meso Scale Disgnostics, Cat No. K151RHD) levels were measured by (Meso Scale Disgnostics assay kits following manufacturer's instructions. Measurements were made on a MESO™ SECTOR S 600 plate reader (Meso Scale Disgnostics).
(§4) Cell proliferation (CTG) and caspase 3/7 activation (IncuCyte) were analyzed using GraphPad Prism. Electrochemiluminescence data was analyzed using MSD Discovery Workbench platform.
(§5) The level of intracellular pro IL-1β and released IL-1β in eight AML cell lines and normal PBMC treated with a titration of Compound 1 over a 48 hour period was assessed. (see FIGS. 1A-1C, Table 2). Supernatant IL-1βb level was induced over 5 fold in 6 out of 8 AML cell lines and normal PBMC upon Compound 1 treatment compared to DMSO (FIGS. 1A, 1B, and 1C, Table 2).

[2] = tested on: ML-2 cells; assay: Immunoblot analysis of target proteins; conditions: 24, 48 and 72 hours, doses conferring similar caspase3/7 activation and viability loss
Description: Cells were washed in ice-cold 1×PBS twice before harvest in Cell Extraction Buffer (ThermoFisher Cat No. FNN0011) supplemented with 1× Halt Protease Inhibitor Cocktail (ThermoFisher Cat No. 78429). Whole cell extracts were collected after centrifugation at 14,000 g for 10 minutes, resolved on 4-12% Bis-Tris Novex Precast Gels (ThermoFisher Cat No. WG1403A), transferred onto a nitrocellulose membrane using the Turboblot Turbo Transfer System (Bio-Rad), and probed with the indicated primary antibodies. Bound antibodies were detected with IRDye-680 or -800 conjugated secondary antibodies using a LI-COR scanner.
Antibodies used for immunoblot: mouse anti-human GSPT-1 mAb conjugated with AL647 (clone number GSPT1-164-17G9-G6, Celgene, San Diego, CA), IL-1β (R&D Systems, Cat No. AF-201-NA), cleaved caspase 3 (Cell Signaling, Cat No. 9664S), alpha-tubulin (Cell Signaling, Cat No. 3873S), cleaved Caspase-8 (Cell Signaling, Cat No. 9748S), Caspase-1 (Cell Signaling, Cat No. 3866S), HA tag (Cell Signaling, Cat No. 3724), phosphor-eIF2a (Cell Signaling, Cat No. 9721), total eIF2a (Cell Signaling, Cat No. 9722), ATF4 (Cell Signaling, Cat No. 11815S), CHOP (Abcam, Cat No. 11419), GAPDH (Cell Signaling, Cat No. 5174), rabbit anti-mouse 800 antibody (LI-COR Biosciences), rabbit anti-mouse 680 antibody (LI-COR Biosciences), mouse anti-rabbit 680 antibody (LI-COR Biosciences), mouse anti-rabbit 800 antibody (LI-COR Biosciences)
as §5

[3] = tested on: ML-2; assay: Cytokine induction, electrochemiluminescence assay of culture supernatant; conditions: compounds at 1 μM, 72 hours
[4] = tested on: MV4-11; assay: as above; conditions: compounds at 1 μM, 72 hours
[5] = tested on: ML-2; assay: Caspase 8/FLICE activity colorimetric assay; conditions: compounds at 1 μM, 24, 48 and 72 hours
Description: (§6) Next, tests were performed to see if caspase 8 activation alone is sufficient to mediate IL-1β induction. […] To ensure caspase 8 activity was captured at an appropriate time frame, caspase 8 activation levels at 24, 48 and 72 hours were measured (FIGS. 3C and 3D) using a caspase 8/FLICE activity colorimetric assay.

[6] = tested on: MV4-11; assay: Caspase 8/FLICE activity colorimetric assay; conditions: compounds at 1 μM, 24, 48 and 72 hours
Description: as §6

[7] = tested on: MOLM-13; assay: Cytokine induction, electrochemiluminescence assay of culture supernatant; conditions: for Effect of second agent on Compound 1 induced IL-1β: MOLM13 (FIG. 13)
Description: as §1, §2, §3, §4, §5

[8] = tested on: KG-1; assay: as above; conditions: KG1; 100 and 1000 nM dexamethasone; 48 hours
Description: as §1, §2, §3, §4, §5

[9] = tested on: MV4-11; assay: as above; conditions: 100 and 1000 nM dexamethasone, 48 hours
Description: as §1, §2, §3, §4, §5

[10] = tested on: ML-2; assay: Cell viability (CELL TITER-GLO), Compound 1 IC50 / dose response; conditions: 0-1 μM Compound 1 with 0-1 μM dexamethasone, 72 hours
Description: For CELL TITER-GLO® (CTG; Promega) and Incucyte assays, cells were seeded at 0.1 million per mL, 50 μL per well of Corning black 384-well plate and allowed set overnight. The next day, test compounds were dispensed using a Tecan D300e digital dispenser according to manufacturer's instruction.
Human AML cell lines, HL-60 (CCL-240), KG-1 (CCL-246), ML-2 (ACC-15), MOLM-13 (ACC-554), MV-4-11 (CRL-9591), NOMO-1 (ACC-542), TF-1 (CRL-2003), THP-1 (TIB-202), and U937 (CRL-1593) were obtained from American Type Culture Collection (ATCC; Manassas, VA) or Deutsche Sammlung von Mikroorganismen and Zellkulturen (DSMZ, Germany) cell banks. […]
AML cell lines and primary AML were treated in duplicate or triplicates with DMSO or test compounds in 384-well plates for 3 days. Cell viability was determined by CELL TITER-GLO® (CTG; Promega) assay kit according to manufacturer's instructions. Apoptosis was monitored using Caspase 3/7 Green reagent (Essen Biosciences Cat No. 4440). Caspase-3/7 activation levels were quantified using the IncuCyte™ ZOOM basic analyzer.
as §4

[11] = tested on: ML-2 cells; assay: Caspase 3/7 activation, IncuCyte assay; conditions: 333 nM Compound 1 with 0, 12, 111, 1000 nM dexamethasone, 72 hour period

| SMILES | Secreted IL-1β in cell culture supernatant ([1]; ML-2) | Intracellular pro-IL-1β (immunoblot) [2] | Effect of second agent on Compound 1 induced IL-1β [1] | Effect of second agent on Compound 1 induced IL-1β [7] | also measured |
| --- | --- | --- | --- | --- | --- |
| CCc1nc(C(N)=O)c(Nc2ccc(N3CCC(N4CCN(C)CC4)CC3)c(OC)c2)nc1NC1CCOCC1 [gilteritinib] | not able to induce high levels | not able to induce high levels | – | – | – |
| COC(=O)C[C@](O)(CCCC(C)(C)O)C(=O)O[C@@H]1C(OC)=C[C@]23CCCN2CCc2cc4c(cc2[C@H]13)OCO4 [homoharringtonine] | not able to induce high levels | not able to induce high levels | – | – | Secreted IL-1β levels, panel of mechanistic compounds [3]: not able to induce secreted IL-1β as efficiently as Compound 1; Secreted IL-1β levels, panel of mechanistic compounds [4]: not able to induce secreted IL-1β as efficiently as Compound 1; Caspase 8 activation level [5]: higher extent of caspase 8 activation than Compound 1; Caspase 8 activation level [6]: higher extent of caspase 8 activation than Compound 1 |
| C[C@H]1C[C@H]2[C@@H]3CCC4=CC(=O)C=C[C@]4(C)[C@@]3(F)[C@@H](O)C[C@]2(C)[C@@]1(O)C(=O)CO [betamethasone] | – | – | can be suppressed | can be suppressed | – |
| Cc1cnc(Nc2ccc(OCCN3CCCC3)cc2)nc1Nc1cccc(S(=O)(=O)NC(C)(C)C)c1 [fedratinib] | not able to induce high levels | not able to induce high levels | – | – | Secreted IL-1β levels, panel of mechanistic compounds [3]: not able to induce secreted IL-1β as efficiently as Compound 1; Secreted IL-1β levels, panel of mechanistic compounds [4]: not able to induce secreted IL-1β as efficiently as Compound 1; Caspase 8 activation level [5]: higher extent of caspase 8 activation than Compound 1; Caspase 8 activation level [6]: higher extent of caspase 8 activation than Compound 1 |
| CC1(C)CCC(CN2CCN(c3ccc(C(=O)NS(=O)(=O)c4ccc(NCC5CCOCC5)c([N+](=O)[O-])c4)c(Oc4cnc5[nH]ccc5c4)c3)CC2)=C(c2ccc(Cl)cc2)C1 [venetoclax] | not able to induce high levels | not able to induce high levels | – | – | – |
| C[C@@H]1C[C@H]2[C@@H]3CCC4=CC(=O)C=C[C@]4(C)[C@@]3(F)[C@@H](O)C[C@]2(C)[C@@]1(O)C(=O)CO [dexamethasone] | – | – | can be suppressed | can be suppressed | Effect on secreted IL-1β levels induced by Compound 1 ([1]; ML-2, 100 and 1000 nM dexamethasone, 48 hours): markedly reduced; Effect on secreted IL-1β levels induced by Compound 1 ([7]; MOLM13, 100 and 1000 nM dexamethasone, 48 hours): markedly reduced; Effect on secreted IL-1β levels induced by Compound 1 [8]: markedly reduced; Effect on secreted IL-1β levels induced by Compound 1 [9]: markedly reduced; Effect of combination on EC50 of Compound 1 (total cell viability) [10]: did not alter EC50 of Compound 1; Effect of combination on caspase3/7 activation by Compound 1 [11]: does not alter rate nor depth of caspase3/7 activation |
| C[C@H]1C[C@@H]2[C@H]([C@@H](O)C[C@@]3(C)[C@H]2CC[C@]3(O)C(=O)CO)[C@@]2(C)C=CC(=O)C=C12 [methylprednisolone] | – | – | can be suppressed | can be suppressed | – |

Source: patent US12090147B2, “Combination therapy with 2-(4-chlorophenyl)-N-((2-(2,6-dioxopiperidin-3-yl)-1-oxoisoindolin-5-yl)methyl)-2,2-difluoroacetamide” (Celgene Corporation, priority 2019, dated 2024)
